PubChem BioAssay AID1259405, NCATS, 2018
Purpose: 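Mouse-designed siRNAs used to find CHO productivity engineering targets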 (primary screen). Cells: Chinese hamster CHO-K1 ovary cells with stable secreted eGFP expression. Knock-down reagent: single siRNA against mouse genes, 0.8 pmol siRNA per well (2 µl of 400 nM stock). Time to read-out: 3 days. Measurement: 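Percent of the per-plate non-targeting control median for intracellular GFP per well by laser scanning cytometry and for cell viability by ATP luminescence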. Scale: GFP, % of control: higher = more GFP per well, higher productivity; viability (ATP), % of control: higher = more viable cells (more ATP). Active means: 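Called active when intracellular GFP, relative to negative control, is at or above 120%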.
The deposit covers about 50,000 reagents; shown is a part drawn at random. Of all reagents, about 4,000 (8%) were called active. 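Mouse siRNA library applied to hamster cells; one well for each siRNA.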 Reagents against one gene are numbered here. No sequences are given here.

no.	target	siRNA no.	GFP, % of control	viability (ATP), % of control	Call
1	Kifbp (kinesin family binding protein)	1	53.3	77.3	inactive
2	Kifbp (kinesin family binding protein)	2	66.8	73.2	inactive
3	Kifbp (kinesin family binding protein)	3	73.9	63.7	inactive
4	Cul5 (cullin 5)	1	81.4	93.7	inactive
5	Cul5 (cullin 5)	2	64.8	48	inactive
6	Cul5 (cullin 5)	3	57	56.9	inactive
7	Rpp25 (ribonuclease P/MRP 25 subunit)	1	53.2	59.4	inactive
8	Rpp25 (ribonuclease P/MRP 25 subunit)	2	31.3	30.4	inactive
9	Rpp25 (ribonuclease P/MRP 25 subunit)	3	61.9	67	inactive
10	Ccl12 (C-C motif chemokine ligand 12)	1	135	103	active
11	Ccl12 (C-C motif chemokine ligand 12)	2	74.4	87.4	inactive
12	Ntn1 (netrin 1)	1	94.6	117	inactive
13	Ntn1 (netrin 1)	2	102	91.2	inactive
14	Hs3st1 (heparan sulfate (glucosamine) 3-O-sulfotransferase 1)	1	75	62.4	inactive
15	Hs3st1 (heparan sulfate (glucosamine) 3-O-sulfotransferase 1)	2	132	112	active
16	Hs3st1 (heparan sulfate (glucosamine) 3-O-sulfotransferase 1)	3	74.8	103	inactive
17	Tmed10 (transmembrane p24 trafficking protein 10)	1	73.1	73.9	inactive
18	Tmed10 (transmembrane p24 trafficking protein 10)	2	99.9	107	inactive
19	Tmed10 (transmembrane p24 trafficking protein 10)	3	104	74.5	inactive
20	Ovch2 (ovochymase 2)	1	61.9	43.8	inactive
21	Ovch2 (ovochymase 2)	2	73.6	83.9	inactive
22	Ovch2 (ovochymase 2)	3	86.7	83.3	inactive
23	Slc33a2	1	91.1	86.9	inactive
24	Slc33a2	2	38.8	61	inactive
25	Slc33a2	3	76.3	85.9	inactive
26	Nme3 (NME/NM23 nucleoside diphosphate kinase 3)	1	78.8	70.5	inactive
27	Zbtb3 (zinc finger and BTB domain containing 3)	1	59	67.3	inactive
28	Zbtb3 (zinc finger and BTB domain containing 3)	2	101	67.3	inactive
29	Zbtb3 (zinc finger and BTB domain containing 3)	3	88.4	103	inactive
30	Hvcn1 (hydrogen voltage-gated channel 1)	1	79.6	101	inactive
31	Hvcn1 (hydrogen voltage-gated channel 1)	2	67.8	58.7	inactive
32	Hvcn1 (hydrogen voltage-gated channel 1)	3	90.7	90	inactive
33	Brms1 (breast cancer metastasis-suppressor 1)	1	83.1	98.1	inactive
34	Brms1 (breast cancer metastasis-suppressor 1)	2	117	105	inactive
35	Brms1 (breast cancer metastasis-suppressor 1)	3	148	121	active
36	Ilf3 (interleukin enhancer binding factor 3)	1	78.9	76.9	inactive
37	Ilf3 (interleukin enhancer binding factor 3)	2	98.6	64.6	inactive
38	Ilf3 (interleukin enhancer binding factor 3)	3	54.3	61.7	inactive
39	Ercc3	1	98.3	88.1	inactive
40	Ercc3	2	70.2	68.4	inactive
41	Ercc3	3	41.8	65	inactive
42	Ccdc57 (coiled-coil domain containing 57)	1	73.3	63.4	inactive
43	Ccdc57 (coiled-coil domain containing 57)	2	91.6	87.5	inactive
44	Ccdc57 (coiled-coil domain containing 57)	3	73.7	78.4	inactive
45	2310057M21Rik (RIKEN cDNA 2310057M21 gene)	1	79.4	83.6	inactive
46	2310057M21Rik (RIKEN cDNA 2310057M21 gene)	2	39.5	41.2	inactive
47	2310057M21Rik (RIKEN cDNA 2310057M21 gene)	3	70.1	79.2	inactive
48	Or51q1 (olfactory receptor family 51 subfamily Q member 1)	1	109	59.8	inactive
49	Or51q1 (olfactory receptor family 51 subfamily Q member 1)	2	74.2	57.5	inactive
50	Or51q1 (olfactory receptor family 51 subfamily Q member 1)	3	44	68.8	inactive
51	Crtac1 (cartilage acidic protein 1)	1	115	96.6	inactive
52	Crtac1 (cartilage acidic protein 1)	2	48.7	49.1	inactive
53	Myo1b (myosin IB)	1	23.4	31.5	inactive
54	Myo1b (myosin IB)	2	73.9	69.4	inactive
55	Exosc5 (exosome component 5)	1	68.1	72.4	inactive
56	Exosc5 (exosome component 5)	2	118	92.9	inactive
57	Exosc5 (exosome component 5)	3	92.2	53.8	inactive
58	Vbp1 (von Hippel-Lindau binding protein 1)	1	75.9	101	inactive
59	Vbp1 (von Hippel-Lindau binding protein 1)	2	156	115	active
60	Sack1f (scaffolding CK1 anchoring protein F)	1	66.5	54.8	inactive
61	Sack1f (scaffolding CK1 anchoring protein F)	2	92.2	51.4	inactive
62	Sack1f (scaffolding CK1 anchoring protein F)	3	88.1	69.7	inactive
63	Eef2 (eukaryotic translation elongation factor 2)	1	82.6	66.6	inactive
64	Eef2 (eukaryotic translation elongation factor 2)	2	71.7	67.8	inactive
65	Eef2 (eukaryotic translation elongation factor 2)	3	76.9	67.4	inactive
66	Fgf16 (fibroblast growth factor 16)	1	70.1	65.1	inactive
67	Fgf16 (fibroblast growth factor 16)	2	57.2	73	inactive
68	Fgf16 (fibroblast growth factor 16)	3	65.5	79.5	inactive
69	Zfp874a (zinc finger protein 874a)	1	83.8	63.8	inactive
70	Zfp874a (zinc finger protein 874a)	2	60	52.4	inactive
71	Zfp874a (zinc finger protein 874a)	3	79.6	93.6	inactive
72	Slfn10 (schlafen 10)	1	107	85.2	inactive
73	Slfn10 (schlafen 10)	2	69.9	80.2	inactive
74	Slfn10 (schlafen 10)	3	55	91.3	inactive
75	Grap (GRB2-related adaptor protein)	1	49.7	67.3	inactive
76	Grap (GRB2-related adaptor protein)	2	116	72.9	inactive
77	Grap (GRB2-related adaptor protein)	3	63.6	45.1	inactive
78	Fam216b (family with sequence similarity 216, member B)	1	138	59.7	active
79	Fam216b (family with sequence similarity 216, member B)	2	75.9	90.9	inactive
80	Fam216b (family with sequence similarity 216, member B)	3	35.8	29.8	inactive
81	Fip1l1 (factor interacting with PAPOLA and CPSF1)	1	55.4	63.5	inactive
82	Fip1l1 (factor interacting with PAPOLA and CPSF1)	2	114	102	inactive
83	Fip1l1 (factor interacting with PAPOLA and CPSF1)	3	61.3	48.5	inactive
84	Rab40c (Rab40C, member RAS oncogene family)	1	116	102	inactive
85	Rab40c (Rab40C, member RAS oncogene family)	2	105	85.1	inactive
86	Rab40c (Rab40C, member RAS oncogene family)	3	87	70.6	inactive
87	Patl2 (protein associated with topoisomerase II homolog 2 (yeast))	1	88.6	88.9	inactive
88	Patl2 (protein associated with topoisomerase II homolog 2 (yeast))	2	84.6	44	inactive
89	Patl2 (protein associated with topoisomerase II homolog 2 (yeast))	3	74.5	87.1	inactive
90	Sos1 (SOS Ras/Rac guanine nucleotide exchange factor 1)	1	79.8	96.5	inactive
91	Sos1 (SOS Ras/Rac guanine nucleotide exchange factor 1)	2	74.6	76.6	inactive
92	Sos1 (SOS Ras/Rac guanine nucleotide exchange factor 1)	3	72.3	94.8	inactive
93	Nup188 (nucleoporin 188)	1	64.9	75	inactive
94	Nup188 (nucleoporin 188)	2	67.8	87.4	inactive
95	Nup188 (nucleoporin 188)	3	50	51.3	inactive
96	Mtus1 (mitochondrial tumor suppressor 1)	1	44.4	78.4	inactive
97	Mtus1 (mitochondrial tumor suppressor 1)	2	77.4	87.3	inactive
98	Mtus1 (mitochondrial tumor suppressor 1)	3	82	71.1	inactive
99	Zbtb20 (zinc finger and BTB domain containing 20)	1	109	92.4	inactive
100	Zbtb20 (zinc finger and BTB domain containing 20)	2	58.7	78	inactive
101	Xirp2 (xin actin-binding repeat containing 2)	1	95	90.1	inactive
102	Xirp2 (xin actin-binding repeat containing 2)	2	78.5	70.1	inactive
103	Xirp2 (xin actin-binding repeat containing 2)	3	68.9	82.7	inactive
104	Unc93a (unc-93 homolog A)	1	109	76.4	inactive
105	Unc93a (unc-93 homolog A)	2	55.5	39	inactive
106	Unc93a (unc-93 homolog A)	3	64.3	58.1	inactive
107	Or4c3 (olfactory receptor family 4 subfamily C member 3)	1	147	106	active
108	Or4c3 (olfactory receptor family 4 subfamily C member 3)	2	96.5	85.8	inactive
109	Or4c3 (olfactory receptor family 4 subfamily C member 3)	3	112	112	inactive

An excerpt from above, showing only “GFP, % of control”.
Ccdc57 (coiled-coil domain containing 57) #3	73.7
2310057M21Rik (RIKEN cDNA 2310057M21 gene) #1	79.4
2310057M21Rik (RIKEN cDNA 2310057M21 gene) #2	39.5
2310057M21Rik (RIKEN cDNA 2310057M21 gene) #3	70.1
Or51q1 (olfactory receptor family 51 subfamily Q member 1) #1	109
Or51q1 (olfactory receptor family 51 subfamily Q member 1) #2	74.2
Or51q1 (olfactory receptor family 51 subfamily Q member 1) #3	44
Crtac1 (cartilage acidic protein 1) #1	115
Crtac1 (cartilage acidic protein 1) #2	48.7
Myo1b (myosin IB) #1	23.4
Myo1b (myosin IB) #2	73.9
Exosc5 (exosome component 5) #1	68.1
Exosc5 (exosome component 5) #2	118
Exosc5 (exosome component 5) #3	92.2
Vbp1 (von Hippel-Lindau binding protein 1) #1	75.9
Vbp1 (von Hippel-Lindau binding protein 1) #2	156
Sack1f (scaffolding CK1 anchoring protein F) #1	66.5
